# Primary screen of a compound library

By UniProt entry, the sequences of proteins in these tests, tags left out.
UniProt P9WFT3, whole entry: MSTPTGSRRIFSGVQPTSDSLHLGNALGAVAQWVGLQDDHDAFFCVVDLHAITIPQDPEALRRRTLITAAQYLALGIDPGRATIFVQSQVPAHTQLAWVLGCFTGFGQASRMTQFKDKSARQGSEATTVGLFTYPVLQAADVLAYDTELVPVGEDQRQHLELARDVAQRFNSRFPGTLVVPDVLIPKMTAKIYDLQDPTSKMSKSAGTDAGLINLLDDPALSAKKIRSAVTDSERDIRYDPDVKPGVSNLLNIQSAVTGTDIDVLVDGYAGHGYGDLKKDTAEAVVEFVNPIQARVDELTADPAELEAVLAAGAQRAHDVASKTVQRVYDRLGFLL

Measurements from “University of Dundee, Small-Polar-MMV Screening Library” (2021), ChEMBL document CHEMBL3988442.

Leishmania in macrophages: 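Cell assay of Leishmania donovani living inside macrophages; the read-out is not stated. Compounds at 30 µM. Higher reads as stronger inhibition (inferred: compounds with an IC50 in retests scored well above the rest). Size under these conditions: about 69,000 compounds, about 1,000 of them at 50% or above in at least one test.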
MtTrpRS: 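Tryptophan-tRNA ligase, Mycobacterium tuberculosis (UniProt P9WFT3). Enzyme assay of tryptophanyl-tRNA synthetase; the read-out is not stated. Tested at 10 µM. Direction is not recorded; retested compounds ran higher, which suggests that high means inhibition. Size under these conditions: about 65,000 compounds, about 64 of them at 50% or above in at least one test.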
T. brucei: 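Whole-parasite assay of Trypanosoma brucei over 72 hours; the read-out is not stated. Tested at 30 µM. The record gives no direction; compounds that gave an IC50 in retests scored well above the rest, so higher reads as stronger inhibition. Values scatter widely below zero; nearly all retest evidence comes from the higher of the two concentrations used. Size under these conditions: about 64,000 compounds, about 940 of them at 50% or above in at least one test.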

The filed quantity is “Percent Effect” (%). The controls that fix the scale are not given in the record; negative values are as filed. The compounds are a random part of those screened. Two or more numbers in one place are separate tests of the same structure; such repeats can differ widely.

{"smiles": "CN(C)C(=O)c1nn(C)c2c1CN(Cc1ccc(F)cc1)C2.O=C(O)C(F)(F)F", "Leishmania in macrophages": 5.872, "T. brucei": -11.11}
{"smiles": "CCC1CN(C(=O)CN2CCN(c3nccc(OC)n3)CC2)CCO1", "stereo": "configuration not stated", "Leishmania in macrophages": 1.403, "MtTrpRS": -4.302, "T. brucei": 11.24}
{"smiles": "c1ccc(C[C@H]2CN(C3CCOCC3)CC[C@H]2OCC2CC2)cc1", "MtTrpRS": 7.195}
{"smiles": "CC(O)CNc1ccc(C#N)cc1C(F)(F)F", "stereo": "configuration not stated", "Leishmania in macrophages": -0.155, "MtTrpRS": -1.331, "T. brucei": -27.75}
{"smiles": "CCCc1noc(CN2CCC(c3ccnn3CCO)CC2)n1", "Leishmania in macrophages": 24.84, "MtTrpRS": 3.115, "T. brucei": 10.9}
{"smiles": "CC1=N[C@@]2(CC[C@@H]3CN(CC(C)C)C[C@@H]32)C(=O)N1C", "MtTrpRS": -5.148}
{"smiles": "O=C(CN1CCCC1)N1CCCC1c1nc(O)cc(-c2ccccn2)n1", "stereo": "configuration not stated", "Leishmania in macrophages": "16.2 & -18.81", "T. brucei": -17.02}
{"smiles": "[H][C@@]12CCN(S(=O)(=O)CC)[C@]1([H])CC[C@@H](c1nnc(C)o1)O2", "Leishmania in macrophages": 9.555, "T. brucei": -20.46}
{"smiles": "CN(CCC#N)C(=O)CN(C1CC1)C1CCc2ccccc21", "stereo": "configuration not stated", "Leishmania in macrophages": 14.02, "MtTrpRS": 2.431, "T. brucei": -10.56}
{"smiles": "O=C1CCC2(CCN(Cc3cscn3)CC2)CN1CCCO", "Leishmania in macrophages": 7.675, "MtTrpRS": -0.9412, "T. brucei": 6.309}
{"smiles": "COCCCNC(=O)c1cn(C(C)C)cc2c(=O)[nH]nc1-2", "Leishmania in macrophages": 16.22, "MtTrpRS": 2.34, "T. brucei": -25.88}
{"smiles": "CN(C)c1ncnc2c1CCN(C(=O)c1cccnc1)CC2", "MtTrpRS": -4.362}
{"smiles": "Clc1ccc(OCCN2CCN(CCn3cncn3)CC2)cc1", "Leishmania in macrophages": 17.55, "MtTrpRS": 1.006, "T. brucei": -5.628}
{"smiles": "CN1CCC(C)(CN(C)Cc2ccc(CCC(C)(C)O)cc2)C1", "stereo": "configuration not stated", "Leishmania in macrophages": 6.047, "MtTrpRS": 0.6101, "T. brucei": -24.02}
{"smiles": "CCc1nn(C)c(CC)c1CNC(=O)Nc1cccc2c1CCN2C", "Leishmania in macrophages": 20.66, "MtTrpRS": -2.948, "T. brucei": -59.88}
{"smiles": "[H][C@]12CC[C@]([H])(CN(C(=O)N(C)C)C1)N(Cc1nnc(-c3ccco3)o1)C2", "Leishmania in macrophages": 11.5, "T. brucei": -31.55}
{"smiles": "OCCN(CCO)Cc1ccc(Br)c2cccnc12", "Leishmania in macrophages": 33.36, "MtTrpRS": -1.387, "T. brucei": -10.16}
{"smiles": "O=C(N1CCOCC1)N1CCCC2(CCCNC2)C1", "stereo": "configuration not stated", "MtTrpRS": -5.093}
{"smiles": "CC(C)c1cccc(CSc2nnc(CN3CCCC3=O)o2)n1", "Leishmania in macrophages": 3.042, "MtTrpRS": -3.552, "T. brucei": -4.842}
{"smiles": "CCS(=O)(=O)N1CCC2(CC1)CC(OCC1CC1)CO2", "stereo": "configuration not stated", "Leishmania in macrophages": 8.809, "MtTrpRS": -3.607, "T. brucei": -8.882}

Some entries from above, unchanged:

For O=C(N1CCOCC1)N1CCCC2(CCCNC2)C1 (configuration not stated) the result was MtTrpRS: -5.093%.
For CC(O)CNc1ccc(C#N)cc1C(F)(F)F (configuration not stated) the result was Leishmania in macrophages: -0.155%; MtTrpRS: -1.331%; T. brucei: -27.75%.
For CN(C)C(=O)c1nn(C)c2c1CN(Cc1ccc(F)cc1)C2.O=C(O)C(F)(F)F the result was Leishmania in macrophages: 5.872%; T. brucei: -11.11%.